No constants are given. Whether binding was seen depends on the method and setting. Binding seen in cells or lysates may run through a third protein. Some binding calls cover weakened binding; strength is not graded here. Sequences can lack the tags named with a protein.
T1: Flag-hnRNP F (UniProt P52597)
T1 sequence: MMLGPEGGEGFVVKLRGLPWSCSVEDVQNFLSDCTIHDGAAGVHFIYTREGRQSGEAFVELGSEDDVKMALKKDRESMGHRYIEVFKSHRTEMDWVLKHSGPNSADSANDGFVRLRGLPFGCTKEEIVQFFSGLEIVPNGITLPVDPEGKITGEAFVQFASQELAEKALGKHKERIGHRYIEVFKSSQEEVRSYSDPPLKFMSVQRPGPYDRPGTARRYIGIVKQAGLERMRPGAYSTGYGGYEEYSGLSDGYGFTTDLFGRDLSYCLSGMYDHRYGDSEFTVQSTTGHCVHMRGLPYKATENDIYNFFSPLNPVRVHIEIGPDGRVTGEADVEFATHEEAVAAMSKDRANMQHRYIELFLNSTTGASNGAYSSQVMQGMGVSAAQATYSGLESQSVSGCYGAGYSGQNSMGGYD

Sequences of proteins named here, by UniProt entry; tags and fusion partners are left off.
UniProt O95905: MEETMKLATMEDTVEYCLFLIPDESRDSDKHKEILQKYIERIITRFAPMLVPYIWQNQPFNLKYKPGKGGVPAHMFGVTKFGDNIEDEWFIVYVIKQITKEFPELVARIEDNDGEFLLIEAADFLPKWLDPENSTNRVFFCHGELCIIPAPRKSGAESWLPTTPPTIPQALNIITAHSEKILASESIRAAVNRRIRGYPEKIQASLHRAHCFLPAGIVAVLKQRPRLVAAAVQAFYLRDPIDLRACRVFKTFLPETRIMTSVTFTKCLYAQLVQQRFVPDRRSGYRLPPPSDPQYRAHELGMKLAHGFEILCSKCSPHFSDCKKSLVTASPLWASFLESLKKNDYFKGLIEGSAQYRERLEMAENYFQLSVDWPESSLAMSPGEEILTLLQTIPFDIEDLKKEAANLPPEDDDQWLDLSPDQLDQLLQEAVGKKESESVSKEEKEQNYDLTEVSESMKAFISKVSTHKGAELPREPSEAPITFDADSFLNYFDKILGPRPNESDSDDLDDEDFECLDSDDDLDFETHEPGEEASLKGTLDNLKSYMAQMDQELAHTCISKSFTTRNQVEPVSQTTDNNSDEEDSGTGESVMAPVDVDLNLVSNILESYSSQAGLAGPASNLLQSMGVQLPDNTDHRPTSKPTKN

T2: HA-hnRNP F (UniProt P52597)
T2 sequence: T1 sequence

B1: HA-ZFP91 (enzyme, UniProt Q96JP5 1-570)
chain: MPGETEEPRPPEQQDQEGGEAAKAAPEEPQQRPPEAVAAAPAGTTSSRVLRGGRDRGRAAAAAAAAAVSRRRKAEYPRRRRSSPSARPPDVPGQQPQAAKSPSPVQGKKSPRLLCIEKVTTDKDPKEEKEEEDDSALPQEVSIAASRPSRGWRSSRTSVSRHRDTENTRSSRSKTGSLQLICKSEPNTDQLDYDVGEEHQSPGGISSEEEEEEEEEMLISEEEIPFKDDPRDETYKPHLERETPKPRRKSGKVKEEKEKKEIKVEVEVEVKEEENEIREDEEPPRKRGRRRKDDKSPRLPKRRKKPPIQYVRCEMEGCGTVLAHPRYLQHHIKYQHLLKKKYVCPHPSCGRLFRLQKQLLRHAKHHTDQRDYICEYCARAFKSSHNLAVHRMIHTGEKPLQCEICGFTCRQKASLNWHMKKHDADSFYQFSCNICGKKFEKKDSVVAHKAKSHPEVLIAEALAANAGALITSTDILGTNPESLTQPSDGQGLPLLPEPLGNSTSGECLLLEAEGMSKSYCSGTERVSLMADGKIFVGSGSSGGTEGLVMNSDILGATTEVLIEDSDSAGP
B2: ZFP91 (as co-expressed with HA-hnRNP F and Flag-ECD mutants, Fig. 6f) (enzyme, UniProt Q96JP5 1-570)
chain: B1 chain

Key:
Flag-hnRNP F [1] = target: T1, Flag-hnRNP F; test: co-IP; SGC-7901 cells co-transfected with a Flag plasmid (Flag-hnRNP F or Flag-ECD) and HA-ZFP91; complexes of the Flag protein or of HA-ZFP91 immunoprecipitated; partner detected with HA or Flag antibodies
[2] = target: Flag-ECD (wild-type human ecdysoneless homolog) (human) (UniProt O95905); test: as above
Flag-hnRNP F [3] = target: T1, Flag-hnRNP F; test: co-IP; HeLa cells co-transfected with Flag-hnRNP F, HA-ZFP91 and ECD plasmids (none or indicated doses); anti-Flag IP; ZFP91 detected with anti-HA antibodies
HA-hnRNP F = target: T2, HA-hnRNP F; test: co-IP; HeLa cells transfected with Flag-ECD mutants, HA-hnRNP F and ZFP91; anti-HA IP; ZFP91 detected with anti-Flag antibodies

| binding (Flag-hnRNP F [1]) | binding [2] | binding (Flag-hnRNP F [3]) | binding (HA-hnRNP F) | Binder |
| --- | --- | --- | --- | --- |
| binds | binds | binds | – | B1 |
| – | – | – | binds | B2 |

Reference: publication PMC5924763
